Measurements as given in PMC5897841, “Development of a multipurpose scaffold for the display of peptide loops” (Protein Engineering, Design and Selection, 2017).

Tested on: Aurora AD274N kinase
Test: Sedimentation velocity AUC, Aurora A D274N / RAD-TPX2
Format: binding, human
Settings: 20°C, 20 mM HEPES pH 7.5, 500 mM NaCl

B1: Aurora AD274N: Kinase dead human Aurora AD274N mutant (residues 122-403) (protein)
chain: ESKKRQWALEDFEIGRPLGKGKFGNVYLAREKQSKFILALKVLFKAQLEKAGVEHQLRREVEIQSHLRHPNILRLYGYFHDATRVYLILEYAPLGTVYRELQKLSKFDEQRTATYITELANALSYCHSKRVIHRDIKPENLLLGSAGELKIANFGWSVHAPSSRRTTLCGTLDYLPPEMIEGRMHDEKVDLWSLGVLCYEFLVGKPPFEANTYQETYKRISRVEFTFPDFVTEGARDLISRLLKHNPSQRPMLREVLEHPWITANSSKPSNCQNKESASKQS
modifications: left off: His6, C-terminal, kept
- Sedimentation coefficient (s-value) (SV AUC, 50 000 rpm, 280 nm, Aurora AD274N 10 μM, RAD-TPX2 25 μM, complex 10 μM each): 2.6 S
- Molar mass from SV AUC (boundary spreading): 34.5 kDa
